Experimental data reported in the supplement of paper PMC10849652.
This is one part of the list.

The chains behind the UniProt entries cited, without tags or fusion partners. Where a name states a change or a piece, a line headed by the entry shows the natural chain unless it says otherwise.
UniProt Q9NZV5, whole entry, looked up: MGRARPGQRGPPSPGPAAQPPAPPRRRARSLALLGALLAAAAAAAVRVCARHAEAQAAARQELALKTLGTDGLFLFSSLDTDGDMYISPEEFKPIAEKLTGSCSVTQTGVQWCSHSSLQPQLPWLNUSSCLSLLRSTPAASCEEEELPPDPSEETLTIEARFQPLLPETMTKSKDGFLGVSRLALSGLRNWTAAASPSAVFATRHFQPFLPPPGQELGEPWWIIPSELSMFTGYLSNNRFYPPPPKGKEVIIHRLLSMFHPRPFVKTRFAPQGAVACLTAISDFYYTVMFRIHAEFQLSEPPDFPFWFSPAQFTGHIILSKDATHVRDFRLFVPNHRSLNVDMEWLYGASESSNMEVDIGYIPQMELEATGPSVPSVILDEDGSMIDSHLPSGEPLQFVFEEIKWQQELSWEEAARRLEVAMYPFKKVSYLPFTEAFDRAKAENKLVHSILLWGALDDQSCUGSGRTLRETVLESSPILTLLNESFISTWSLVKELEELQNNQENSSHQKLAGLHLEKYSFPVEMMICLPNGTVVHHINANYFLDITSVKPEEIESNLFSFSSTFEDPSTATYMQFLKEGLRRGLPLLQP
UniProt Q86XK3: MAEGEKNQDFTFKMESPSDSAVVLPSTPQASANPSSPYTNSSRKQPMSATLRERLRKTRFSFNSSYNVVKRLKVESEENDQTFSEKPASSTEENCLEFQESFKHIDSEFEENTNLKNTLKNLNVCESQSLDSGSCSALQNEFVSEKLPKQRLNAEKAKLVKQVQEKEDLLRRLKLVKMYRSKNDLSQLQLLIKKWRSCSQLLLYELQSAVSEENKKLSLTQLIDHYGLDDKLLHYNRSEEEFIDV
UniProt Q9NR46: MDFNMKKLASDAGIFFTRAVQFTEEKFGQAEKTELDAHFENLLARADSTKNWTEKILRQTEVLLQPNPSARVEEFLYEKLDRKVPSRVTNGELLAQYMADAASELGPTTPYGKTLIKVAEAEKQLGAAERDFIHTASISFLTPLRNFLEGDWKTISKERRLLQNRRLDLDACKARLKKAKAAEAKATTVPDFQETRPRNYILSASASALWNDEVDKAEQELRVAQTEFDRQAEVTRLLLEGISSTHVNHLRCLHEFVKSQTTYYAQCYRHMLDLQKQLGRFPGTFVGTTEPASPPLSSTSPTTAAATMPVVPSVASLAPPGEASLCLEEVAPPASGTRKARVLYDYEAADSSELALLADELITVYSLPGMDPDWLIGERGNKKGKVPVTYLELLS
UniProt Q9H0K1: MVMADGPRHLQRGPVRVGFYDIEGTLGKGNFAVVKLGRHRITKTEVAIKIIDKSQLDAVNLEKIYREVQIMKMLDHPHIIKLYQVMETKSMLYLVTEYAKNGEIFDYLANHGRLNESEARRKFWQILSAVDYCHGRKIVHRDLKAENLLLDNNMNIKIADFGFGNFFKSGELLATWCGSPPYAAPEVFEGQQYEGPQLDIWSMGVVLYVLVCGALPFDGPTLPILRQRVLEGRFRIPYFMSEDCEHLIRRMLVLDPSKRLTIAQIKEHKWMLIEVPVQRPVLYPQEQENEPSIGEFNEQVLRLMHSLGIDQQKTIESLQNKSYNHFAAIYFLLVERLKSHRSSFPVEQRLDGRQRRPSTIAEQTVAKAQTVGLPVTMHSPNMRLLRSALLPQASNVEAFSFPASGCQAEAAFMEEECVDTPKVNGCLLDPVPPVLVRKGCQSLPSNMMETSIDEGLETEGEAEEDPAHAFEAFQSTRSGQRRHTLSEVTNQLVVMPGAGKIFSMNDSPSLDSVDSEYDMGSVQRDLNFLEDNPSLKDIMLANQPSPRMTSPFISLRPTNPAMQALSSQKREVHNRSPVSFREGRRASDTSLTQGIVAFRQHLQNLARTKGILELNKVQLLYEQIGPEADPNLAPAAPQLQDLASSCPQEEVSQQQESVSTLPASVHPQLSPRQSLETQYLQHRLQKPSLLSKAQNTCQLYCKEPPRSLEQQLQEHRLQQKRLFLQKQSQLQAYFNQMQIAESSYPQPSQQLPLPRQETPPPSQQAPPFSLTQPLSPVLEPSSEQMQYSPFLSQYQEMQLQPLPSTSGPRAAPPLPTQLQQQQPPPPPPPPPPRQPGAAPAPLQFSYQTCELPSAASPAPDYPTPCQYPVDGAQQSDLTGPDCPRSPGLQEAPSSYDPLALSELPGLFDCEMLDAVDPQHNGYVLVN
UniProt Q9BRG2: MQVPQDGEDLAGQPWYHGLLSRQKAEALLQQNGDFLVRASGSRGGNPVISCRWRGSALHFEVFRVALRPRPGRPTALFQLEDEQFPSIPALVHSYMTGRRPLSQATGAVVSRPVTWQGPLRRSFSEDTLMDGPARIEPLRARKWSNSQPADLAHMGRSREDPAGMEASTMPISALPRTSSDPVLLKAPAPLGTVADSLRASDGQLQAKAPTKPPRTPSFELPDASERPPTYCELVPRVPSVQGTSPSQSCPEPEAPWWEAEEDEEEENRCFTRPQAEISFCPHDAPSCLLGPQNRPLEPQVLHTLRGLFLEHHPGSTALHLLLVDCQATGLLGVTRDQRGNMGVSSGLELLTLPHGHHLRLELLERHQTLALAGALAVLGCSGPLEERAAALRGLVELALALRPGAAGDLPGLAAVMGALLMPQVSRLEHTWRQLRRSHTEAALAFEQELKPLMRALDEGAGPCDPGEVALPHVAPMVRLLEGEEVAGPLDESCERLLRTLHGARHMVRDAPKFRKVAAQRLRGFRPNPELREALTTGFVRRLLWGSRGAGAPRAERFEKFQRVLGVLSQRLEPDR
UniProt O15304: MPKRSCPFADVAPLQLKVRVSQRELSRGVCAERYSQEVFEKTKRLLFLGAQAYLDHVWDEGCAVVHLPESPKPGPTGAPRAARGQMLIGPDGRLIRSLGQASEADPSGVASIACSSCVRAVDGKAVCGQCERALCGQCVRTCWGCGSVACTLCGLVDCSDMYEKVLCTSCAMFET
UniProt Q9BYW2: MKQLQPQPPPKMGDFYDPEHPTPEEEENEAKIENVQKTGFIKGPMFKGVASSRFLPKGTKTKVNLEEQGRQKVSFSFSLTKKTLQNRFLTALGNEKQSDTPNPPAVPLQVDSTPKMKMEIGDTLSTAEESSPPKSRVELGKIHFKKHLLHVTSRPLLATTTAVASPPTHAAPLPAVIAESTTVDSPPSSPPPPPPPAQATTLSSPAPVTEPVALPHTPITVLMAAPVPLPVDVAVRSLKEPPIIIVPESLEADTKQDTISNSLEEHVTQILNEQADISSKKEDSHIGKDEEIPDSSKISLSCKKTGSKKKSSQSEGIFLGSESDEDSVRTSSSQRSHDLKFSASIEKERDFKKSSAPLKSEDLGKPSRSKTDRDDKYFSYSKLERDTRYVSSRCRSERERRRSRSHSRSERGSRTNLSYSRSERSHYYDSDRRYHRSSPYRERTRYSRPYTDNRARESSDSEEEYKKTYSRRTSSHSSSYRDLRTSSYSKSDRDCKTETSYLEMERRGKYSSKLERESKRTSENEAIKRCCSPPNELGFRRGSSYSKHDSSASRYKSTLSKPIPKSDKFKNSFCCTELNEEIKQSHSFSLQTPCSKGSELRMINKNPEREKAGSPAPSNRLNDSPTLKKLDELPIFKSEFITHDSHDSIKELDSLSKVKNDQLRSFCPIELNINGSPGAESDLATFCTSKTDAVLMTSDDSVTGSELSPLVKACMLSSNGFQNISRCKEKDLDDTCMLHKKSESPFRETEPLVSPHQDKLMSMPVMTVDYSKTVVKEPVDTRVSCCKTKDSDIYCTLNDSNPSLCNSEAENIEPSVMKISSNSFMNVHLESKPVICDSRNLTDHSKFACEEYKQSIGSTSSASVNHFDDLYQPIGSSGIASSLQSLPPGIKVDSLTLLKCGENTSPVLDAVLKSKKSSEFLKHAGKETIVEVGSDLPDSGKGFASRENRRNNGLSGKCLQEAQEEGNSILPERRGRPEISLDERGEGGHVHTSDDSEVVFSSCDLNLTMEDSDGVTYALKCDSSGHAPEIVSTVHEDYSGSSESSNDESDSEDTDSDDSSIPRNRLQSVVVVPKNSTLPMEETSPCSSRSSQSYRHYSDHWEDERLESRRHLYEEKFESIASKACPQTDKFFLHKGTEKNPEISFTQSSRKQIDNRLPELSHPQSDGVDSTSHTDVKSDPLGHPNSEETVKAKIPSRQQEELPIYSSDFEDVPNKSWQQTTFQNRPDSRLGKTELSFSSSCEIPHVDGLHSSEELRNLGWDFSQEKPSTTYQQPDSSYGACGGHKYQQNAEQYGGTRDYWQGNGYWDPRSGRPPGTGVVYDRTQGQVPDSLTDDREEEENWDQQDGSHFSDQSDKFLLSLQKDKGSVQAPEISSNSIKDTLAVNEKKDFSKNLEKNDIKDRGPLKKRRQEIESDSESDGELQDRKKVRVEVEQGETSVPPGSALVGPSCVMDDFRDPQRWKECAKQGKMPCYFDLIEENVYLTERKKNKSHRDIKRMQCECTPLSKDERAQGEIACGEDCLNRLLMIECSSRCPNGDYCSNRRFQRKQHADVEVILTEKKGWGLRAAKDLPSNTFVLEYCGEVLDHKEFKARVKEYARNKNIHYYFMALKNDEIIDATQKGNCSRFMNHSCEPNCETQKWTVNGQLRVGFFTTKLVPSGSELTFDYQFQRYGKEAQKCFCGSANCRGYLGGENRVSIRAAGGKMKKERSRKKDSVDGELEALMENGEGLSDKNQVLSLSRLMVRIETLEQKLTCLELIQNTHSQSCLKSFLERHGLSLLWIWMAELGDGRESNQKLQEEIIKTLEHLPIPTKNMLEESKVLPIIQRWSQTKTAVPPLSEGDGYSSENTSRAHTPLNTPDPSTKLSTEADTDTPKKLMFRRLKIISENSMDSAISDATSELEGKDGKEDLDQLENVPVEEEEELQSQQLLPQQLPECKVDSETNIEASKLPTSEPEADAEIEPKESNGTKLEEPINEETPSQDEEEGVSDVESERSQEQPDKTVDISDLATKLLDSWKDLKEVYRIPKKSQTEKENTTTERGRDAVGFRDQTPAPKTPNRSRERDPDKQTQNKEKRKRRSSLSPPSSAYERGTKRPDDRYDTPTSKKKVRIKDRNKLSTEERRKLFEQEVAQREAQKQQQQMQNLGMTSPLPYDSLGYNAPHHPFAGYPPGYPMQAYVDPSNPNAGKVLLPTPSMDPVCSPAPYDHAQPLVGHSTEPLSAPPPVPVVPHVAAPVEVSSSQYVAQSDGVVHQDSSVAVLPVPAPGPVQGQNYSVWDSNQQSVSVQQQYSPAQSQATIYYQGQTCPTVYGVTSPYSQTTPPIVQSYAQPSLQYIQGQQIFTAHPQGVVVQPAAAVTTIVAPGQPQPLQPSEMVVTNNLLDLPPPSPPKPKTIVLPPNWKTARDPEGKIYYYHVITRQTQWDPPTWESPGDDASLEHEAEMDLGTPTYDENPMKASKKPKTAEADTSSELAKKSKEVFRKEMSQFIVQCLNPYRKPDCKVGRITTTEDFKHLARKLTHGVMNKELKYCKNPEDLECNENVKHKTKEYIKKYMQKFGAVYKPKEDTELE
UniProt Q96JX3: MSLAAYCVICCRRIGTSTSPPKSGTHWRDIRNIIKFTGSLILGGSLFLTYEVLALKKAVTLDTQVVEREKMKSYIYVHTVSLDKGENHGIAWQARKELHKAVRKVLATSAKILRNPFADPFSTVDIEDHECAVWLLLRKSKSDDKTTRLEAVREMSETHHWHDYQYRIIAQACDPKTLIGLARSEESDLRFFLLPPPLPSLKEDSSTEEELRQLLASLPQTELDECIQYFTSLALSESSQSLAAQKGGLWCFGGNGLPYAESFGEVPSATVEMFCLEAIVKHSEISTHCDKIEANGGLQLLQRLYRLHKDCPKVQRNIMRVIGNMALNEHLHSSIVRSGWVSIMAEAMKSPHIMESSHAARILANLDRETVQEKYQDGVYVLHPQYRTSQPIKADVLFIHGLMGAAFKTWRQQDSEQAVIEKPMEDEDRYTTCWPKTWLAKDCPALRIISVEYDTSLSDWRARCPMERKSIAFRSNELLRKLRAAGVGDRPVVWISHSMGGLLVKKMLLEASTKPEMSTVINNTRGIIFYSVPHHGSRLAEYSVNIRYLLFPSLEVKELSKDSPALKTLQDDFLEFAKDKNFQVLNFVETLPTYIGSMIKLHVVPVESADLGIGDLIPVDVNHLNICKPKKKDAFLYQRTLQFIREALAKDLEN
UniProt Q9NTG7: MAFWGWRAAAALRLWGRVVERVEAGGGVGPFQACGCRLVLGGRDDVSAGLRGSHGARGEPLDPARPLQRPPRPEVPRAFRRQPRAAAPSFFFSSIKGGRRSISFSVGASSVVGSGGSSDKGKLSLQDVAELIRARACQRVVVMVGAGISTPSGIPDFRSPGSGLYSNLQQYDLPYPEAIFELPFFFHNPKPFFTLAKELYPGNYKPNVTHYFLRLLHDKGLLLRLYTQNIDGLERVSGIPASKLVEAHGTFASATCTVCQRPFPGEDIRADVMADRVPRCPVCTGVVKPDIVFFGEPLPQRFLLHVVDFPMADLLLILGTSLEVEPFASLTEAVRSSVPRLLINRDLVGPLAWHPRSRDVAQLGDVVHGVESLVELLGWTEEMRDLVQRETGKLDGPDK

What was measured:
Assay in all cases: log2 fold change, soluble protein after heating vs DMSO (PISA); higher = thermal stabilisation; K562 cells, 10 uM, 30 min; active = over 0.2 and 3.5 SD of the protein, either way, in both replicates (recomputed)
[1] = compound: CS(=O)(=O)c1ccc(-c2cnc(N)c(C(=O)Nc3ccccc3)n2)cc1
Method in brief: (§1)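 Quantification of soluble protein used TMTpro 16plex LC-MS/MS, with channel sums equalised. Samples were the supernatant after 21,000xg for 90 min of pooled aliquots from K562 cells (2×10^6 cells/mL) treated with 10 μM compound for 30 min, heated for 3 min over 48°C-58°C, and extracted in PBS with 0.5% NP-40 at 4°C. Values, from duplicates, describe thermal stability against control samples on a log2 fold-change scale.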

crizotinib = compound: C[C@@H](Oc1cc(-c2cnn(C3CCNCC3)c2)cnc1N)c1c(Cl)ccc(F)c1Cl [crizotinib]
Method in brief: as §1

[2] = compound: C[C@@H]1COCCN1C2=NC(=NC(=C2)C3(CC3)S(=O)(=O)C)C4=C5C=CNC5=CC=C4
Method in brief: as §1

[3] = compound: C[C@H](C1=CC=C(C=C1)C(=O)NC2=C3C=CNC3=NC=C2)N
Method in brief: as §1

gandotinib = compound: Cc1cc(Nc2cc(CN3CCOCC3)c3nc(C)c(Cc4ccc(Cl)cc4F)n3n2)n[nH]1 [gandotinib]
Method in brief: as §1

[4] = compound: Cc1cc(SCc2sc(-c3ccc(C(F)(F)F)cc3)nc2C)ccc1OCC(=O)O
Method in brief: as §1

doramapimod = compound: Cc1ccc(-n2nc(C(C)(C)C)cc2NC(=O)Nc2ccc(OCCN3CCOCC3)c3ccccc23)cc1 [doramapimod]
Method in brief: as §1

ispinesib = compound: Cc1ccc(C(=O)N(CCCN)[C@@H](c2nc3cc(Cl)ccc3c(=O)n2Cc2ccccc2)C(C)C)cc1 [ispinesib]
Method in brief: as §1

bafetinib = compound: Cc1ccc(NC(=O)c2ccc(CN3CC[C@H](N(C)C)C3)c(C(F)(F)F)c2)cc1Nc1nccc(-c2cncnc2)n1 [bafetinib]
Method in brief: as §1

[5] = compound: Cc1cccc(CC(=O)N2CCc3c2ccc(-c2cn(C)c4ncnc(N)c24)c3F)n1
Method in brief: as §1

nilotinib = compound: Cc1cn(-c2cc(NC(=O)c3ccc(C)c(Nc4nccc(-c5cccnc5)n4)c3)cc(C(F)(F)F)c2)cn1 [nilotinib]
Method in brief: as §1

[6] = compound: Cc1nc(Nc2n[nH]c3c2CN(C(=O)N[C@H](CN(C)C)c2ccccc2)C3(C)C)c2sccc2n1
Method in brief: as §1

dasatinib = compound: Cc1nc(Nc2ncc(C(=O)Nc3c(C)cccc3Cl)s2)cc(N2CCN(CCO)CC2)n1 [dasatinib]
Method in brief: as §1

[7] = compound: Cc1ncc(-c2ccnc(Nc3ccc(S(C)(=O)=O)cc3)n2)n1C(C)C
Method in brief: as §1

[8] = compound: Cn1cc(-c2ccc3c(c2)CCN3C(=O)Cc2cccc(C(F)(F)F)c2)c2c(N)ncnc21
Method in brief: as §1

[9] = compound: Cn1cc(-c2ccc3nnc(C(F)(F)c4ccc5ncccc5c4)n3n2)cn1
Method in brief: as §1

tipifarnib = compound: Cn1cncc1[C@@](N)(c1ccc(Cl)cc1)c1ccc2c(c1)c(-c1cccc(Cl)c1)cc(=O)n2C [tipifarnib]
Method in brief: as §1

mubritinib = compound: FC(F)(F)c1ccc(/C=C/c2nc(COc3ccc(CCCCn4ccnn4)cc3)co2)cc1 [mubritinib]
Method in brief: as §1

duvelisib = compound: C[C@H](Nc1ncnc2nc[nH]c12)c1cc2cccc(Cl)c2c(=O)n1-c1ccccc1 [duvelisib]
Method in brief: as §1

tozasertib = compound: Cc1cc(Nc2cc(N3CCN(C)CC3)nc(Sc3ccc(NC(=O)C4CC4)cc3)n2)n[nH]1 [tozasertib]
Method in brief: as §1

Measured: log2 fold change

SETMAR (UniProt Q53H47)
inactive: [1] 0.077 | crizotinib 0.036 | [2] -0.028 | [3] 0.134 | gandotinib -0.129 | [4] 0.003 | doramapimod 0.024 | ispinesib 0.164 | bafetinib 0 | [5] -0.07 | nilotinib -0.104 | [6] 0.117 | dasatinib -0.013 | [7] 0.163 | [8] 0.028 | [9] 0.127 | tipifarnib 0.054 | mubritinib 0.04

SFXN4 isoform 3 (UniProt Q6P4A7)
inactive: [1] 0.189 | [3] -0.22 | duvelisib 0.029 | gandotinib -0.173 | tozasertib -0.06 | [4] 0.002 | bafetinib -0.003 | [5] 0.001 | dasatinib -0.051 | [8] 0.124 | tipifarnib 0

SERPIND1 (UniProt P05546)
inactive: crizotinib -0.118 | [2] -0.091 | [3] 0.226 | gandotinib -0.113 | doramapimod 0.074 | [5] -0.363 | nilotinib 0.71 | [6] 0.674 | [7] -0.319 | [8] 0.027 | mubritinib -0.351

SELENON (UniProt Q9NZV5)
inactive: [1] 0.125 | ispinesib -0.057 | [9] -0.072

SFT2D1 (UniProt Q8WV19)
inactive: [1] -0.006 | ispinesib -0.205 | [9] 0.049 | tipifarnib -0.085 | mubritinib 0.045

SFR1 isoform 2 (UniProt Q86XK3)
inactive: [1] -0.107 | [2] -0.154 | [3] 0.068 | ispinesib 0.028 | bafetinib 0.086 | [8] -0.116 | [9] -0.023 | mubritinib 0.089

SH3GL3 isoform 3 (UniProt Q99963)
inactive: [1] 0.098 | tozasertib -0.208 | ispinesib -0.259 | [9] -0.31 | tipifarnib 0.059 | mubritinib 0.053

SFT2D2 (UniProt O95562)
inactive: [1] 0.021 | [2] -0.014 | [3] -0.181 | duvelisib 0.164 | gandotinib -0.064 | tozasertib 0.009 | [4] 0.019 | ispinesib 0.054 | bafetinib -0.069 | [5] -0.035 | nilotinib 0.003 | [6] 0.006 | dasatinib -0.026 | [7] -0.014 | [8] 0.019 | [9] -0.001 | tipifarnib -0.134 | mubritinib 0.024

SEPTIN10 isoform 2 (UniProt Q9P0V9)
inactive: [1] -0.035 | [2] 0.092 | [3] -0.015 | duvelisib 0.072 | gandotinib -0.12 | tozasertib 0.055 | [4] -0.048 | bafetinib -0.06 | [5] -0.008 | nilotinib -0.01 | [6] 0.037 | dasatinib 0.019 | [7] 0.012 | [8] 0.184 | tipifarnib -0.037 | mubritinib 0.044

SH3GLB2 (UniProt Q9NR46)
inactive: [1] 0.031 | crizotinib -0.104 | [2] -0.101 | [3] 0.013 | gandotinib -0.183 | [4] 0.073 | doramapimod 0.013 | ispinesib -0.052 | bafetinib -0.029 | [5] 0.044 | nilotinib -0.051 | [6] -0.15 | dasatinib -0.147 | [7] -0.066 | [8] 0.006 | [9] -0.1 | tipifarnib -0.091 | mubritinib 0.098

SEMG1 (UniProt P04279)
inactive: [3] -0.107 | [8] 0.036 | mubritinib 0.072

SIK2 (UniProt Q9H0K1)
inactive: ispinesib -0.069 | bafetinib 0.058 | [9] -0.06 | tipifarnib 0.199 | mubritinib 0.002

SFXN1 (UniProt D6RDG7)
inactive: tozasertib -0.119 | mubritinib 0.048

SELENOI (UniProt Q9C0D9)
inactive: crizotinib -0.295 | doramapimod -0.025 | ispinesib -0.368 | [9] 0

SH2D3A (UniProt Q9BRG2)
inactive: crizotinib -0.169 | doramapimod 0.035 | ispinesib 0.129 | nilotinib -0.001 | [6] -0.385 | [7] 0.12 | [9] 0.047

SIGIRR (UniProt H0YDR5)
inactive: crizotinib 0.248 | gandotinib -0.052 | doramapimod -0.032 | [5] -0.195

SKAP2 (UniProt O75563)
inactive: crizotinib -0.155 | duvelisib 0.065 | tozasertib -0.109 | [4] 0.168 | doramapimod 0.075 | ispinesib -0.226 | dasatinib 0.008 | [9] 0.018 | tipifarnib 0.154 | mubritinib -0.043

SESN1 isoform 2 (UniProt Q9Y6P5)
inactive: crizotinib -0.024 | tozasertib 0.03 | doramapimod 0.272

SERPING1 isoform 3 (UniProt P05155)
inactive: [3] 0.044 | duvelisib -0.082 | tozasertib -0.039 | [4] -0.113 | dasatinib -0.093 | [8] 0.303

SH3BGR (UniProt P55822)
inactive: [2] 0.043 | [3] -0.04 | duvelisib 0.012 | gandotinib -0.206 | [4] 0.115 | bafetinib -0.031 | [5] 0.297 | nilotinib -0.069 | [6] -0.113 | dasatinib 0.056 | [7] -0.088 | [8] 0.019 | tipifarnib 0.023 | mubritinib 0.019

SECISBP2 (UniProt Q96T21)
inactive: gandotinib 0.101 | tozasertib -0.233 | ispinesib -0.255 | [5] -0.133 | nilotinib 0.158 | [6] -0.113 | [7] -0.165 | [9] 0.029 | mubritinib 0.213

SHROOM4 (UniProt Q9ULL8)
inactive: [3] 0.254 | duvelisib -0.075 | gandotinib 0.266 | [4] -0.279 | [5] 0.063 | dasatinib 0.239 | [8] -0.381 | tipifarnib 0.247 | mubritinib 0.07

SERPINA3 (UniProt P01011)
inactive: [2] -0.098

SIVA1 (UniProt O15304)
inactive: [2] -0.092

SHARPIN (UniProt Q9H0F6)
inactive: nilotinib 0.35 | [6] -0.245 | [7] 0.034

SKA2 (UniProt Q8WVK7)
inactive: gandotinib -0.046 | ispinesib -0.571 | [5] 0.001 | [9] -0.241

SELENOM (UniProt Q8WWX9)
inactive: [2] 0.104 | nilotinib 0.256 | [6] -0.114 | [7] 0.137

SF1 (UniProt H7BZT1)
inactive: ispinesib -0.188 | [9] -0.215

SEMA7A (UniProt O75326)
inactive: [2] 0.22 | gandotinib 0.035 | ispinesib 0.017 | [5] 0.04 | [9] 0.074

SH2D2A isoform 2 (UniProt Q9NP31)
inactive: crizotinib 0.171 | [3] -0.043 | duvelisib -0.089 | gandotinib -0.142 | [4] -0.19 | doramapimod -0.038 | [5] -0.188 | nilotinib 0.013 | [6] 0.015 | dasatinib -0.077 | [7] 0.011 | [8] -0.09 | tipifarnib -0.006 | mubritinib -0.113

10 successive entries out of the list so far:
SECISBP2 (UniProt Q96T21)
inactive: gandotinib 0.101 | tozasertib -0.233 | ispinesib -0.255 | [5] -0.133 | nilotinib 0.158 | [6] -0.113 | [7] -0.165 | [9] 0.029 | mubritinib 0.213

SHROOM4 (UniProt Q9ULL8)
inactive: [3] 0.254 | duvelisib -0.075 | gandotinib 0.266 | [4] -0.279 | [5] 0.063 | dasatinib 0.239 | [8] -0.381 | tipifarnib 0.247 | mubritinib 0.07

SERPINA3 (UniProt P01011)
inactive: [2] -0.098

SIVA1 (UniProt O15304)
inactive: [2] -0.092

SHARPIN (UniProt Q9H0F6)
inactive: nilotinib 0.35 | [6] -0.245 | [7] 0.034

SKA2 (UniProt Q8WVK7)
inactive: gandotinib -0.046 | ispinesib -0.571 | [5] 0.001 | [9] -0.241

SELENOM (UniProt Q8WWX9)
inactive: [2] 0.104 | nilotinib 0.256 | [6] -0.114 | [7] 0.137

SF1 (UniProt H7BZT1)
inactive: ispinesib -0.188 | [9] -0.215

SEMA7A (UniProt O75326)
inactive: [2] 0.22 | gandotinib 0.035 | ispinesib 0.017 | [5] 0.04 | [9] 0.074

SH2D2A isoform 2 (UniProt Q9NP31)
inactive: crizotinib 0.171 | [3] -0.043 | duvelisib -0.089 | gandotinib -0.142 | [4] -0.19 | doramapimod -0.038 | [5] -0.188 | nilotinib 0.013 | [6] 0.015 | dasatinib -0.077 | [7] 0.011 | [8] -0.09 | tipifarnib -0.006 | mubritinib -0.113

The list continues:

SERBP1 isoform 3 (UniProt Q8NC51)
inactive: [2] -0.239 | duvelisib -0.201 | gandotinib 0.146 | tozasertib -0.027 | [4] -0.064 | ispinesib -0.367 | bafetinib -0.11 | [5] 0 | nilotinib 0.028 | [6] 0.015 | dasatinib 0.245 | [7] -0.082 | [9] -0.129 | tipifarnib 0.11 | mubritinib 0.044

SF1 (UniProt H7C0N4)
inactive: crizotinib -0.087 | [3] -0.071 | duvelisib -0.067 | tozasertib 0.101 | [4] -0.146 | doramapimod 0.049 | ispinesib -0.017 | bafetinib -0.005 | nilotinib 0.114 | [6] 0.026 | dasatinib 0.035 | [7] 0.221 | [8] 0.11 | [9] -0.033 | tipifarnib 0.04 | mubritinib -0.086

SERPINB7 (UniProt O75635)
inactive: duvelisib -0.057 | gandotinib -0.135 | tozasertib -0.189 | [4] -0.202 | bafetinib 0.175 | [5] 0.254 | dasatinib -0.03 | mubritinib 0.203

SETD2 (UniProt Q9BYW2)
inactive: gandotinib -0.035 | tozasertib -0.172 | [5] 0.036

SGSH (UniProt P51688)
inactive: [3] 0.127 | nilotinib -0.146 | [6] -0.13 | [7] -0.016 | [8] -0.122

SEPTIN2 (UniProt B5MCX3)
inactive: tozasertib -0.131 | ispinesib -0.278 | [9] 0.151

SIAH2 (UniProt O43255)
inactive: crizotinib 0.145 | [3] 0.22 | doramapimod 0.056 | ispinesib -0.022 | bafetinib -0.042 | nilotinib 0.027 | [6] -0.166 | [7] -0.01 | [8] -0.073 | [9] 0.011 | tipifarnib 0.009 | mubritinib -0.155

SHQ1 (UniProt Q6PI26)
inactive: duvelisib 0.126 | [4] 0.076 | dasatinib -0.079

SERAC1 (UniProt Q96JX3)
inactive: [3] 0.079 | nilotinib 0.047 | [6] -0.236 | [7] 0.111 | [8] -0.115 | mubritinib -0.027

SEPTIN7 isoform 2 (UniProt Q16181)
inactive: tozasertib -0.019 | mubritinib -0.44

SENP8 (UniProt Q96LD8)
inactive: crizotinib 0.003 | doramapimod -0.193 | nilotinib -0.149 | [6] -0.163 | [7] -0.056

SIRT3 (UniProt Q9NTG7)
inactive: crizotinib -0.081 | duvelisib 0.123 | gandotinib -0.133 | [4] -0.057 | doramapimod 0.025 | ispinesib 0.223 | [5] 0.025 | dasatinib -0.021 | [9] -0.019 | mubritinib 0.087

SHROOM1 (UniProt Q2M3G4)
inactive: [2] -0.055 | [3] -0.064 | ispinesib 0.147 | bafetinib 0.375 | [8] -0.072 | [9] -0.185 | tipifarnib 0.196
